Results on eight substances are retold here after patent US8450281B2 (Debiopharm S.A., priority 2007, dated 2013).

HELM strings list residues between dots; [ac] is acetyl, [am] amide, other brackets name non-standard units.

The nature of this data set: general procedure: solution-phase peptide synthesis; TFFH/DIPEA (fragment coupling); PyAOP/sym-collidine (cyclisation).
Where [1] appears, read: late stage modification step, HPLC.

Regarding “Ph-NH—C(S)— MeLeu-Val-MeLeu-Ala-D-Ala-MeLeu-MeLeu-MeVal-MeBmt(OAc)-Abu-Sar-OMe”, the step yield (late stage modification step) turned out to be 90% yield.

For the substance “H-MeLeu-Val-MeLeu-Ala-D-Ala-MeLeu-MeLeu-MeVal-MeBmt(OAc)-Abu-Sar-OMe”, the step yield (late stage modification step) came out at 76%. The “final HPLC purity” value under setting [1] came out at 98%.

Consider “PEPTIDE1{[MeBmt].[Abu].[D-MeAla].[EtVal].V.[MeLeu].A.[dA].[MeLeu].[MeLeu].[MeVal]}$PEPTIDE1,PEPTIDE1,1:R1-11:R2$$$V2.0”, for which the “final HPLC purity” value (cyclisation step, HPLC) is given as 100%. Further, the cyclisation yield (cyclisation step, on linear precursor) is reported as 59%.

The substance “Boc-D-MeAla-EtVal-Val-MeLeu-Ala-D-Ala-MeLeu-MeLeu-MeVal-MeBmt(OAc)-Abu-Sar-OMe” displayed a step yield (coupling step) of 90%.

Substance “H-D-MeAla-EtVal-Val-MeLeu-Ala-D-Ala-MeLeu-MeLeu-MeVal-MeBmt-Abu-OH” came in with a step yield (late stage modification step) of 64%. Under setting [1], the “crude HPLC purity” value is listed as 86%.

Substance “Boc-D-MeAla-EtVal-Val-MeLeu-Ala-D-Ala-MeLeu-MeLeu-MeVal-MeBmt(OAc)-Abu-NMe-CH2—CH2—OH” had a step yield (late stage modification step) of 81%.

Where the note is “late stage modification step”, “H-Val-MeLeu-Ala-D-Ala-MeLeu-MeLeu-MeVal-MeBmt(OAc)-Abu-Sar-OMe” returned a step yield of 61% yield. Further, the “final HPLC purity” value under setting [1] worked out at 99%.

On to MeBmt(OAc)-CsA, for which the step yield (late stage modification step) is 92%.
